Percent effect of library compounds

Sequences of proteins named here, by UniProt entry; tags and fusion partners are left off.
UniProt P9WFT3, whole entry: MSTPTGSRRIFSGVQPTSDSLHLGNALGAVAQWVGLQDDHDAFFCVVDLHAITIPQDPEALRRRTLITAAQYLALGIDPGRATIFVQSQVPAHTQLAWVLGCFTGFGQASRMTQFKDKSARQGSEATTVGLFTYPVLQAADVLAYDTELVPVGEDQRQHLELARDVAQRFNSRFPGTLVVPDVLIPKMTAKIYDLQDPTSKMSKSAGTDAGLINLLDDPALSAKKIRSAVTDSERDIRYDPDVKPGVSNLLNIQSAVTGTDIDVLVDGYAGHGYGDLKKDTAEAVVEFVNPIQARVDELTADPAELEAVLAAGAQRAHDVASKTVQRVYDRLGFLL
UniProt P9WPC5, whole entry: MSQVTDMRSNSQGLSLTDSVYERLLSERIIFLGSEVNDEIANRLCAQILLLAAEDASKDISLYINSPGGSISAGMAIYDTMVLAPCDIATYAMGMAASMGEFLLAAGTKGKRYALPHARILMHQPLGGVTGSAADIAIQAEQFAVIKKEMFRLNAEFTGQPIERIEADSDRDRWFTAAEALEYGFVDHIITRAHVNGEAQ
UniProt P9WPC3, whole entry partner: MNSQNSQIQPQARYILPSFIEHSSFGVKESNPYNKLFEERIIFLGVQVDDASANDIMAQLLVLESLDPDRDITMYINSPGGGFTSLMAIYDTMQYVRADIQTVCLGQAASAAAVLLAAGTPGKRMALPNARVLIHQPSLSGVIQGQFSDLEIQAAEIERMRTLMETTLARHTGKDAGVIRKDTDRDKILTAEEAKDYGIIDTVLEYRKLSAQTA

Measurements from “University of Dundee, Small-Polar-MMV Screening Library” (2021), ChEMBL document CHEMBL3988442.

MtTrpRS: 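Tryptophan-tRNA ligase, Mycobacterium tuberculosis (UniProt P9WFT3). Enzyme assay of tryptophanyl-tRNA synthetase; the read-out is not stated. Compounds at 10 µM. Direction is not recorded; retested compounds ran higher, which suggests that high means inhibition. Size under these conditions: about 65,000 compounds, about 64 of them at 50% or above in at least one test.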
ClpP1P2: 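ClpP1P2, Mycobacterium tuberculosis (UniProt P9WPC5 and UniProt P9WPC3). Protease assay of ClpP1P2, read by the AMC dye that it sets free. Tested at 50 µM. Higher reads as stronger inhibition, judged from the few compounds that gave an IC50. Most other retested compounds had strongly negative values. Size under these conditions: about 69,000 compounds, about 10 of them at 50% or above in at least one test.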

Results are given as percent effect. The controls that fix the scale are not given in the record; negative values are as filed. This is an unselected part of the compounds tested.

With COCCN1CCCCC12CC(=O)N(c1ccccc1OC)C2 (stereo not shown) the screen gave ClpP1P2: -18.04%.
With Cc1nccc(NCc2cncc3c2CCN(CCN(C)C)C3)n1 the screen gave ClpP1P2: -11.17%.
With O=C(NCC1CCS(=O)(=O)C1)N(Cc1ccccn1)C1CC1 (stereo not shown) the screen gave MtTrpRS: 2.77%; ClpP1P2: 0.9534%.
With O=S1(=O)N(c2ccccc2)C[C@@H](O)[C@]12CCNC2 the screen gave ClpP1P2: -0.5324%.
With c1ccc(CN2CC[C@@H]3O[C@@H](COCC4CCOCC4)CC[C@@H]32)nc1 the screen gave MtTrpRS: 0.8811%; ClpP1P2: 13.74%.
With CC(C)c1nc2c(n1C)CCN(CC(=O)Nc1ccncc1)C2 the screen gave MtTrpRS: -6.897%; ClpP1P2: -33.43%.
With Cc1cccnc1CN(C)C(C(=O)O)c1ccc(-n2cccn2)cc1 (stereo not shown) the screen gave MtTrpRS: 1.321%; ClpP1P2: -4.697%.
With Cc1nc(CN2CCN(Cc3cc4n(n3)CCNC4)CC2)cs1 the screen gave MtTrpRS: -1.156%; ClpP1P2: 13.43%.
With COCC(=O)N1CCC(c2noc3nc(C)cc(C(F)(F)F)c23)CC1 the screen gave MtTrpRS: -3.595%; ClpP1P2: 2.943%.
With Cc1ccc(OC2CCN(C(=O)Cc3c(C)[nH]c(=O)[nH]c3=O)CC2)cc1 the screen gave MtTrpRS: 3.809%; ClpP1P2: -14.29%.
With CCNC(=O)N(Cc1ccoc1)C1CCCCC1 the screen gave MtTrpRS: 0.7498%; ClpP1P2: 2.29%.
With CCc1nc(C2CCCN2Cc2ccn(C)c(=O)c2)no1 (stereo not shown) the screen gave MtTrpRS: -7.888%; ClpP1P2: -29.08%.
With CC(C)Oc1ccc(C(O)CNCc2ccccc2C(F)(F)F)cc1 (stereo not shown) the screen gave MtTrpRS: -1.288%; ClpP1P2: -2.04%.
With Cc1ncsc1C(=O)NCc1ccnc(N2CCN(C)CC2)c1 the screen gave MtTrpRS: -0.000005%; ClpP1P2: -29.11%.
With O=C(CN1CCCCC1Cn1cncn1)NCCc1ccsc1 (stereo not shown) the screen gave MtTrpRS: 14.79%; ClpP1P2: -8.317%.
With CN1C(=N)NC(=O)/C1=C/c1ccc(-c2ccc(Br)cc2)o1 the screen gave MtTrpRS: -3.067%; ClpP1P2: -26.49%.
With CCC(C)n1cnc(S(=O)(=O)N(Cc2cccnc2)C(C)C)c1 (stereo not shown) the screen gave MtTrpRS: -1.728%; ClpP1P2: -9.482%.
With Cn1cc(N2CCC3(CCCN(Cc4ccc(F)cc4)C3)C2=O)cn1 (stereo not shown) the screen gave MtTrpRS: 1.146%; ClpP1P2: 7.39%.
With O=C(NCCN1CCNC1=O)c1cc(-c2ccc(O)cc2)n[nH]1 the screen gave MtTrpRS: -1.967%; ClpP1P2: -0.5927%.
With c1cnc(N2CCO[C@H]3CN(Cc4ccsc4)C[C@H]32)nc1 the screen gave MtTrpRS: -4.691%; ClpP1P2: 1.79%.
With COc1ccc(C)cc1S(=O)(=O)NCCC(O)c1ccccc1 (stereo not shown) the screen gave MtTrpRS: 4.262%; ClpP1P2: 9.261%.
With CN1C(Cn2cccn2)C[C@@H]2CN(Cc3cccnc3)CC[C@@H]21 (stereo partly shown) the screen gave MtTrpRS: 5.259%; ClpP1P2: 8.48%.
With Cc1cc(C(F)(F)F)cc(=O)n1CCCn1cnnn1 the screen gave MtTrpRS: -2.026%; ClpP1P2: -7.137%.
With COc1ccc(F)cc1-c1nc2c([nH]1)c(C1CC1)nn2C the screen gave MtTrpRS: 2.457%; ClpP1P2: 5.582%.
With COc1ccc(C2CNCCN2C(=O)c2nccc3ccccc23)cc1 (stereo not shown) the screen gave MtTrpRS: 2.605%; ClpP1P2: -8.899%.
With CC(=O)c1cccc(OCCCC(=O)N(C)Cc2cscn2)c1 the screen gave MtTrpRS: 11.38%; ClpP1P2: -15.29%.
With CC(=O)N1CCC(NC(=O)c2cc(Cl)ccc2-n2cnnn2)CC1 the screen gave MtTrpRS: -5.247%; ClpP1P2: 11.87%.
With CN(C)CCN1CCN(C)c2nc(-c3ccccc3)ncc2C1=O the screen gave ClpP1P2: -3.454%.
With CC1CN(CC(=O)Nc2cccnc2)CCN1c1nccs1 (stereo not shown) the screen gave MtTrpRS: 0.2915%; ClpP1P2: -4.165%.
With CN(C)CC1(O)CCCN(C(=O)c2ccccc2-n2cccn2)C1 (stereo not shown) the screen gave MtTrpRS: 0%; ClpP1P2: 8.317%.
With O=C1CCC(CCC(=O)N2CCC2c2cccs2)=NN1 (stereo not shown) the screen gave MtTrpRS: 2.304%; ClpP1P2: -12.13%.
With COc1ccc(OC)c(C(O)CNC(=O)Nc2ccc(F)cc2F)c1 (stereo not shown) the screen gave MtTrpRS: 1.846%; ClpP1P2: 2.639%.
With CC[C@@H]1N(Cc2ccc(F)cc2)CCC[C@]12CCC(=O)N2C the screen gave MtTrpRS: 0.6634%; ClpP1P2: -10.33%.
With Cc1cc(-c2cnc(N3CCCC3)nc2C(C)C)on1 the screen gave MtTrpRS: -7.245%; ClpP1P2: -8.765%.
With COCCN(Cc1cc(O)nc2ccccc12)C(=O)NC(C)C the screen gave MtTrpRS: -1.489%; ClpP1P2: -0.4361%.
With O=C(Cn1nc(Br)nc1Br)N1CCCC1 the screen gave MtTrpRS: 1.55%; ClpP1P2: 0.8276%.
With CC1=C[C@@H](CC#N)[C@H](C(C)C)C[C@H]1CC(=O)N1CCN(C)CC1 the screen gave MtTrpRS: 3.991%; ClpP1P2: 2.888%.
With COC(=O)c1cccc(C(=O)N2CCN(C(=O)N(C)C)CC2(C)C)c1 the screen gave MtTrpRS: 0.8961%; ClpP1P2: -7.422%.
With Cc1nc(C(C)C)cc(N2CCC3(CCC(=O)N(CC4CC4)C3)CC2)n1 the screen gave MtTrpRS: 3.782%; ClpP1P2: 10.96%.
With Cc1cc(C(F)(F)F)nc(CCNC(C)Cn2cncn2)n1 (stereo not shown) the screen gave MtTrpRS: -0.3236%; ClpP1P2: -5.577%.
With O=C(c1ccncc1)N1CCCn2c(CN3CCCCC3)nnc2C1 the screen gave MtTrpRS: 1.41%; ClpP1P2: 2.836%.
With Cc1noc(C(C)C)c1C(=O)NCCN1CCCCCC1=O the screen gave MtTrpRS: 4.035%; ClpP1P2: 1.361%.

Repeated from the top, 4 entries:

- COCCN1CCCCC12CC(=O)N(c1ccccc1OC)C2 (stereo not shown) | ClpP1P2: -18.04%
- Cc1nccc(NCc2cncc3c2CCN(CCN(C)C)C3)n1 | ClpP1P2: -11.17%
- O=C(NCC1CCS(=O)(=O)C1)N(Cc1ccccn1)C1CC1 (stereo not shown) | MtTrpRS: 2.77%; ClpP1P2: 0.9534%
- O=S1(=O)N(c2ccccc2)C[C@@H](O)[C@]12CCNC2 | ClpP1P2: -0.5324%